No constants are given. Whether binding was seen depends on the method and setting. Binding seen in cells or lysates may run through a third protein. Some entries that bind do so weakly or less than the wild type. For part of these data: Sequences can lack the tags named with a protein.
T1: Recombinant mouse Gpnmb lacking signal peptide tagged with 3xFLAG peptides (mouse) (UniProt Q99P91)
T1 sequence: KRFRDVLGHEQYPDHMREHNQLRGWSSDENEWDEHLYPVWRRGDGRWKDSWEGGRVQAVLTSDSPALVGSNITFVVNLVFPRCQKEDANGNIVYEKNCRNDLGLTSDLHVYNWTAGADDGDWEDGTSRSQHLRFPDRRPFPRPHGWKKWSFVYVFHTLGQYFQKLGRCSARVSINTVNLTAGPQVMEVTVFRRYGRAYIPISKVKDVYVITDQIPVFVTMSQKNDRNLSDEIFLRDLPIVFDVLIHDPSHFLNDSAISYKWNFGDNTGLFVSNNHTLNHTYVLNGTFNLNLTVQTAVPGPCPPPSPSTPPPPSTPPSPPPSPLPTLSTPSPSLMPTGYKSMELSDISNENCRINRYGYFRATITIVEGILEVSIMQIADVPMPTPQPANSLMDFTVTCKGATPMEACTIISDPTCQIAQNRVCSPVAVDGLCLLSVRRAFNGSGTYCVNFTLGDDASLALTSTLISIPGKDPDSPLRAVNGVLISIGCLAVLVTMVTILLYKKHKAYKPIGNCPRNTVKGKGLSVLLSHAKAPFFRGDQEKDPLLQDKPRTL

T2: calnexin (mouse tissues) (mouse (endogenous in mouse liver and adipose stromal vascular fractions)) (UniProt P35564)
T2 sequence: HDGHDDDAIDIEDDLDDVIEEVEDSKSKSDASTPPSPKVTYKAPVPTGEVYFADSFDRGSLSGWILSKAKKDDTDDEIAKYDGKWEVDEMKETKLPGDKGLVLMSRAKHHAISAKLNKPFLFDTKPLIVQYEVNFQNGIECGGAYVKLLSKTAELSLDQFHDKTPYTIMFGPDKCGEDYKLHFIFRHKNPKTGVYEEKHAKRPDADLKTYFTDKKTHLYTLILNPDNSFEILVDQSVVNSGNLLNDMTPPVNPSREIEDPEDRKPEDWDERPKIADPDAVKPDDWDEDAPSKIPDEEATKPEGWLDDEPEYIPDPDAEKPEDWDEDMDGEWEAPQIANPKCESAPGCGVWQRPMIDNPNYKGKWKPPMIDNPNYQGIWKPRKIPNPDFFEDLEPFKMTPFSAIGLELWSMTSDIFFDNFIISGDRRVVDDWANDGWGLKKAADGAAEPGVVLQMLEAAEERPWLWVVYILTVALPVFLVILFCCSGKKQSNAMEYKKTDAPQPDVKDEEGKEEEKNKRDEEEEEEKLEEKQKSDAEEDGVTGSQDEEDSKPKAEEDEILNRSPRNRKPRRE

B1: calnexin (protein, UniProt P27824 21-592)
chain: HDGHDDDVIDIEDDLDDVIEEVEDSKPDTTAPPSSPKVTYKAPVPTGEVYFADSFDRGTLSGWILSKAKKDDTDDEIAKYDGKWEVEEMKESKLPGDKGLVLMSRAKHHAISAKLNKPFLFDTKPLIVQYEVNFQNGIECGGAYVKLLSKTPELNLDQFHDKTPYTIMFGPDKCGEDYKLHFIFRHKNPKTGIYEEKHAKRPDADLKTYFTDKKTHLYTLILNPDNSFEILVDQSVVNSGNLLNDMTPPVNPSREIEDPEDRKPEDWDERPKIPDPEAVKPDDWDEDAPAKIPDEEATKPEGWLDDEPEYVPDPDAEKPEDWDEDMDGEWEAPQIANPRCESAPGCGVWQRPVIDNPNYKGKWKPPMIDNPSYQGIWKPRKIPNPDFFEDLEPFRMTPFSAIGLELWSMTSDIFFDNFIICADRRIVDDWANDGWGLKKAADGAAEPGVVGQMIEAAEERPWLWVVYILTVALPVFLVILFCCSGKKQTSGMEYKKTDAPQPDVKEEEEEKEEEKDKGDEEEEGEEKLEEKQKSDAEEDGGTVSQEEEDRKPKAEEDEILNRSPRNRKPRRE
B2: Gpnmb (glycoprotein nonmelanoma protein B) in aP2 promoter-driven Gpnmb transgenic mice (protein, UniProt Q99P91 23-574)
chain: KRFRDVLGHEQYPDHMREHNQLRGWSSDENEWDEHLYPVWRRGDGRWKDSWEGGRVQAVLTSDSPALVGSNITFVVNLVFPRCQKEDANGNIVYEKNCRNDLGLTSDLHVYNWTAGADDGDWEDGTSRSQHLRFPDRRPFPRPHGWKKWSFVYVFHTLGQYFQKLGRCSARVSINTVNLTAGPQVMEVTVFRRYGRAYIPISKVKDVYVITDQIPVFVTMSQKNDRNLSDEIFLRDLPIVFDVLIHDPSHFLNDSAISYKWNFGDNTGLFVSNNHTLNHTYVLNGTFNLNLTVQTAVPGPCPPPSPSTPPPPSTPPSPPPSPLPTLSTPSPSLMPTGYKSMELSDISNENCRINRYGYFRATITIVEGILEVSIMQIADVPMPTPQPANSLMDFTVTCKGATPMEACTIISDPTCQIAQNRVCSPVAVDGLCLLSVRRAFNGSGTYCVNFTLGDDASLALTSTLISIPGKDPDSPLRAVNGVLISIGCLAVLVTMVTILLYKKHKAYKPIGNCPRNTVKGKGLSVLLSHAKAPFFRGDQEKDPLLQDKPRTL

Columns and labels:
[1] = molecular target: T1, Recombinant mouse Gpnmb lacking signal peptide tagged with 3xFLAG peptides (mouse); assay: co-IP; LI90 cells transfected with p3xFLAG-mGpnmb; precipitated with anti-FLAG M2 affinity resin, blotted with anti-calnexin antibody
[2] = molecular target: T2, calnexin (mouse tissues) (mouse (endogenous in mouse liver and adipose stromal vascular fractions)); assay: proximity ligation; Duolink PLA on frozen liver sections of Gpnmb Tg mice; goat anti-Gpnmb and rabbit anti-calnexin primary antibodies, PLA probes anti-goat PLUS and anti-rabbit MINUS; counterstained with anti-F4/80
[3] = molecular target: T2, calnexin (mouse tissues) (mouse (endogenous in mouse liver and adipose stromal vascular fractions)); assay: co-IP; cell lysates of stromal vascular fractions from epididymal adipose tissues; immunoprecipitated with anti-calnexin antibody, immunoblotted with anti-Gpnmb antibody

Binder | binding [1] | binding [2] | binding [3]
B1 | binds | – | –
B2 | – | binds | binds
